Our source for the binding signal (fold lower affinity than RNA) values is patent publication US20230125788.

The chains behind the UniProt entries cited, without tags or fusion partners.
UniProt Q13148, whole entry: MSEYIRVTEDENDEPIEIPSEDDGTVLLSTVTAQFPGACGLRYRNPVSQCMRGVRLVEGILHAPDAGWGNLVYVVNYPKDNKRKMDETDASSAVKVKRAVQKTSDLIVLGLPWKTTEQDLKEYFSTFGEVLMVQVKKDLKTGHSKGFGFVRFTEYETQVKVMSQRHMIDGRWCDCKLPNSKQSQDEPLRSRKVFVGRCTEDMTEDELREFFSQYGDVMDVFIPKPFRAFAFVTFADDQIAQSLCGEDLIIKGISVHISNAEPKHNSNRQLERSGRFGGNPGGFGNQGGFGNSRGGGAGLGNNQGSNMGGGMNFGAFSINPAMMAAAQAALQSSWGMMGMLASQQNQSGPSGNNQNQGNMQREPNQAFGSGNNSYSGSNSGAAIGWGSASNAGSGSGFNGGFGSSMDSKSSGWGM

This data set deals with TDP-43 WT (UniProt Q13148). As to the kind of experiment: binding assay. Conditions: CITED affinity; experiment here: no droplet formation at 250 mM NaCl; purified recombinant protein; single-stranded DNA.

The exact form of at least one protein or probe is not confirmed. Whether high values mean tight binding is not given here for every scale.

“AGTGTGTGTGTGTGTGTGTGTGTGTGTGTGTGTGTGT [A(GT)18]”: the binding signal (fold lower affinity than RNA) was 200.
